Test [1] addresses T1, GST-tagged DISC1 protein fragment (amino acids 347-600) (UniProt Q9NRI5).
T1 sequence (looked up): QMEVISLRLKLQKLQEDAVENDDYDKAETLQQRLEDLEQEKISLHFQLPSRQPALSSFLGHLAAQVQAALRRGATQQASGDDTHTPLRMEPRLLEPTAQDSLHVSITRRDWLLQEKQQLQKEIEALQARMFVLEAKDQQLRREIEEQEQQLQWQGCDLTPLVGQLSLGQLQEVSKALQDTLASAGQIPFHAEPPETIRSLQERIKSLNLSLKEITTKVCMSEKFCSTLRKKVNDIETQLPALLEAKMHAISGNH
As to the kind of experiment: in vitro binding assay, glutathione Sepharose pull-down, anti-His Western blot. For orientation: In western blotting, separated proteins are transferred to a membrane and probed.

In test [2] the target is T2, wtDISC1-myc (myc-tagged wild-type DISC1 protein) (UniProt Q9NRI5).
T2 sequence (looked up): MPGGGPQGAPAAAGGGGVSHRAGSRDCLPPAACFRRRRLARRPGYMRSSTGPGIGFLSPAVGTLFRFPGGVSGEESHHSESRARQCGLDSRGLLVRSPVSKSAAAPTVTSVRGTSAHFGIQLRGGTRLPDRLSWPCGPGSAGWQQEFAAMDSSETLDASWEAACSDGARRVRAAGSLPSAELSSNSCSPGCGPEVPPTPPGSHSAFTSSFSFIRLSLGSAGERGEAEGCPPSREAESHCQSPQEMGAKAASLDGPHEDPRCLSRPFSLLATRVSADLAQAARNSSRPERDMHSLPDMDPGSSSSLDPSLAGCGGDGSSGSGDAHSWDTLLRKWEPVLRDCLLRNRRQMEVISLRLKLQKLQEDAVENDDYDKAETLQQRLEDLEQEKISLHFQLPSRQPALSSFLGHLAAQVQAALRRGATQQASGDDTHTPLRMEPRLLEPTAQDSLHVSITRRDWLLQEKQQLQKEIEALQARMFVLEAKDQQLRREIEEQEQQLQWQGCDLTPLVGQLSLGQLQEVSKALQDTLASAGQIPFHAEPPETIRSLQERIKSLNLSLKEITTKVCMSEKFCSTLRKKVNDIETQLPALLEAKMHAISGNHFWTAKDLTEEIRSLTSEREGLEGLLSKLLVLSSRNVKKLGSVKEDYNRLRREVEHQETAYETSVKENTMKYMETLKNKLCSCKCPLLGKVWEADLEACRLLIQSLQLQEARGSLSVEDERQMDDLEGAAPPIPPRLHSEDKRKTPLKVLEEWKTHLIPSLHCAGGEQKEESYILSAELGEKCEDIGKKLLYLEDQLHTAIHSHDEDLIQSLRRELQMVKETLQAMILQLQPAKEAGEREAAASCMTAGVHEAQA
Description: co-immunoprecipitation in HEK293 cells with an anti-myc antibody.

In test [3] the target is T2, wtDISC1-myc (myc-tagged wild-type DISC1 protein). As to the kind of experiment: co-immunoprecipitation in HEK293 cells, anti-myc precipitation, anti-HA Western blot.

This passage reports binding results from patent publication US7491499.

These are yes or no findings as the source states them, for the method shown. Binding seen in cells or lysates may run through a third protein. Some results given as binding are weak or reduced against the parent protein; the word gives no strength. Sequences can lack the tags named with a protein.

B1: His-tagged DISC1 protein fragment (amino acids 347-600) (protein, UniProt Q9NRI5 347-600, looked up, not shown: small tags and cut ends)
chain: QMEVISLRLKLQKLQEDAVENDDYDKAETLQQRLEDLEQEKISLHFQLPSRQPALSSFLGHLAAQVQAALRRGATQQASGDDTHTPLRMEPRLLEPTAQDSLHVSITRRDWLLQEKQQLQKEIEALQARMFVLEAKDQQLRREIEEQEQQLQWQGCDLTPLVGQLSLGQLQEVSKALQDTLASAGQIPFHAEPPETIRSLQERIKSLNLSLKEITTKVCMSEKFCSTLRKKVNDIETQLPALLEAKMHAISGNH
With B1, the binding entry in test [1] is given as “binds”.

B2: wtDISC1-HA (HA-tagged wild-type DISC1 protein) (protein, UniProt Q9NRI5 1-854, looked up, not shown: small tags and cut ends)
chain: MPGGGPQGAPAAAGGGGVSHRAGSRDCLPPAACFRRRRLARRPGYMRSSTGPGIGFLSPAVGTLFRFPGGVSGEESHHSESRARQCGLDSRGLLVRSPVSKSAAAPTVTSVRGTSAHFGIQLRGGTRLPDRLSWPCGPGSAGWQQEFAAMDSSETLDASWEAACSDGARRVRAAGSLPSAELSSNSCSPGCGPEVPPTPPGSHSAFTSSFSFIRLSLGSAGERGEAEGCPPSREAESHCQSPQEMGAKAASLDGPHEDPRCLSRPFSLLATRVSADLAQAARNSSRPERDMHSLPDMDPGSSSSLDPSLAGCGGDGSSGSGDAHSWDTLLRKWEPVLRDCLLRNRRQMEVISLRLKLQKLQEDAVENDDYDKAETLQQRLEDLEQEKISLHFQLPSRQPALSSFLGHLAAQVQAALRRGATQQASGDDTHTPLRMEPRLLEPTAQDSLHVSITRRDWLLQEKQQLQKEIEALQARMFVLEAKDQQLRREIEEQEQQLQWQGCDLTPLVGQLSLGQLQEVSKALQDTLASAGQIPFHAEPPETIRSLQERIKSLNLSLKEITTKVCMSEKFCSTLRKKVNDIETQLPALLEAKMHAISGNHFWTAKDLTEEIRSLTSEREGLEGLLSKLLVLSSRNVKKLGSVKEDYNRLRREVEHQETAYETSVKENTMKYMETLKNKLCSCKCPLLGKVWEADLEACRLLIQSLQLQEARGSLSVEDERQMDDLEGAAPPIPPRLHSEDKRKTPLKVLEEWKTHLIPSLHCAGGEQKEESYILSAELGEKCEDIGKKLLYLEDQLHTAIHSHDEDLIQSLRRELQMVKETLQAMILQLQPAKEAGEREAAASCMTAGVHEAQA
As to B2, the binding entry in test [2] and in test [3] was “binds” each time.
